Tests used:
Settings in all cases: in % (unit assumed)
[1] = Metabolic stability assay, rat liver microsomes
Experimental: (§1) 7. Metabolic stability assay. The metabolic profile of NHWD-870 was determined using mouse, rat, dog, monkey, and human liver microsomes using the protocols […]
(§2) No. Compound ID Exat Mass Stock Conc.
(§3) 1) 100 mM potassium phosphate buffer, PH7.4; 2) 10mM MgCI2
(§4) 1) Intermediate solution: Dilute 5 μL of compound or control from stock solution (10 mM) with 45 uL DMSO,then mixed with 450 μL 1:1 Methanol/Water (Conc.: 10 0 […]
(§5) 2) Working solution: Dilute 50 μL from intermediate solution with 450 μL 100 mM potassium phosphate buffer (Conc.: 10 μM, 4.5%MeOH)
(§6) (3) NADPH regenerating system (final Isocitric dehydrogenase conc.= 1 unit/mL at […]
(§7) 1) β-Nicotinamide adenine dinucleotide phosphate, Vendor: sigma Cat. No. N0505
(§8) 2) Isocitric acid, Vendor: Sigma Cat. No. I1252
(§9) 3) Isocitric dehydrogenase, Vendor: sigma Cat. No. I2002
(§10) (4) Liver microsome solution preparation (final concentration o f 0.5 mg protein/mL) […]
(§11) Cold ACN including 100 ng/mL Tolbutamide and 100 ng/mL Labetalol as internal […]
(§12) 1) Add 10 μL compound or control working solution/well to all plates (T0, T5, T10, T20, T30, T60, NCF60) except matrix blank.
(§13) 2) Dispense 680 μL/well microsome solution to 96-well plate as reserv oir according to […]
(§14) plate map. Then add 80 μL/well to every plate by Apricot, incubate the mixture of microsome solution and compound at 37℃ for about 10 min.
(§15) 3) Add 10 μL 100 mM potassium phosphate buffer/well to NCF60, incubate at 37℃, […]
(§16) 4) After pre-warming, dispense 90 μL/well NADPH regenerating system to 96-well plate as reservoir according to the plate map. Then add 10 μL/well to every plate by Apricot to start reaction.
(§17) 5) Incubate at 37℃, start timer 2.
(§18) 6) Add 300 (μL/well) stop solution (cold in 4℃, including 100 ng/mL Tolbutamide and 100 ng/mL Labetalol) to terminate the reaction.
(§19) 7) The sampling plates are shaked for approx 10 min.
(§20) 8) Samples are centrifuged at 4000 rpm for 20 min under 4℃.
(§21) 9) While centrifuging, load 8×new 96-well plate with 300 μL HPLC water, then transfer 100 μL supernatant, mixed for LC/MS/MS.
(§22) Use equation of first order kinetics to calculate t1/2 and Clin t(mic): […]
(§23) Equation of first order kinetics: […]

[2] = Metabolic stability assay, monkey liver microsomes
Experimental: as §1, §2, §3, §4, §5, §6, §7, §8, §9, §10, §11, §12, §13, §14, §15, §16, §17, §18, §19, §20, §21, §22, §23

[3] = Metabolic stability assay, mouse liver microsomes
Experimental: as §1, §2, §3, §4, §5, §6, §7, §8, §9, §10, §11, §12, §13, §14, §15, §16, §17, §18, §19, §20, §21, §22, §23

[4] = Metabolic stability assay, dog liver microsomes
Experimental: as §1, §2, §3, §4, §5, §6, §7, §8, §9, §10, §11, §12, §13, §14, §15, §16, §17, §18, §19, §20, §21, §22, §23

[5] = Metabolic stability assay, human liver microsomes
Experimental: as §1, §2, §3, §4, §5, §6, §7, §8, §9, §10, §11, §12, §13, §14, §15, §16, §17, §18, §19, §20, §21, §22, §23

Remaining in rat liver microsomes (Sup Fig.6b) ([1]; time 0): 100 | Remaining in rat liver microsomes (Sup Fig.6b) ([1]; time 5): 17.074 | Remaining in rat liver microsomes (Sup Fig.6b) ([1]; time 10): 2.145 | Remaining in rat liver microsomes (Sup Fig.6b) ([1]; time 20): 0.167 | Remaining in rat liver microsomes (Sup Fig.6b) ([1]; time 30): 0.05 | Remaining in rat liver microsomes (Sup Fig.6b) ([1]; time 60): 0 | Remaining in Monkey liver microsomes (Sup Fig.6d) ([2]; time 0): 100 | Remaining in Monkey liver microsomes (Sup Fig.6d) ([2]; time 5): 64.476 | Remaining in Monkey liver microsomes (Sup Fig.6d) ([2]; time 10): 46.872 | Remaining in Monkey liver microsomes (Sup Fig.6d) ([2]; time 20): 23.235 | Remaining in Monkey liver microsomes (Sup Fig.6d) ([2]; time 30): 5.35 | Remaining in Monkey liver microsomes (Sup Fig.6d) ([2]; time 60): 0.343 | Remaining in mouse liver microsomes (Sup Fig.6a) ([3]; time 0): 100 | Remaining in mouse liver microsomes (Sup Fig.6a) ([3]; time 5): 9.879 | Remaining in mouse liver microsomes (Sup Fig.6a) ([3]; time 10): 0.346 | Remaining in mouse liver microsomes (Sup Fig.6a) ([3]; time 20): 0.055 | Remaining in mouse liver microsomes (Sup Fig.6a) ([3]; time 30): 0.045 | Remaining in mouse liver microsomes (Sup Fig.6a) ([3]; time 60): 0 | Remaining in Dog liver microsomes (Sup Fig.6c) ([4]; time 0): 100 | Remaining in Dog liver microsomes (Sup Fig.6c) ([4]; time 5): 0.263 | Remaining in Dog liver microsomes (Sup Fig.6c) ([4]; time 10): 0.176 | Remaining in Dog liver microsomes (Sup Fig.6c) ([4]; time 20): 0.237 | Remaining in Dog liver microsomes (Sup Fig.6c) ([4]; time 30): 0.192 | Remaining in Dog liver microsomes (Sup Fig.6c) ([4]; time 60): 0.169 | Remaining in Human liver microsomes (Sup Fig.6e) ([5]; time 0): 100 | Remaining in Human liver microsomes (Sup Fig.6e) ([5]; time 5): 82.99 | Remaining in Human liver microsomes (Sup Fig.6e) ([5]; time 10): 64.782 | Remaining in Human liver microsomes (Sup Fig.6e) ([5]; time 20): 40.862 | Remaining in Human liver microsomes (Sup Fig.6e) ([5]; time 30): 13.966 | Remaining in Human liver microsomes (Sup Fig.6e) ([5]; time 60): 0.093
Compound: CCCNCC(O)COc1ccccc1C(=O)CCc1ccccc1 (stereo not drawn) [Propafenone]

Reference: PMC7156724, “Potent BRD4 inhibitor suppresses cancer cell-macrophage interaction” (Nature Communications, 2020)
